Results: patent publication US9718846B1, “Crystalline polymorphs of benfotiamine, process for preparation and its use thereof” (Shanghai Ri Xin Biotechnolgy Co., Ltd., priority 2012, dated 2017)
Some results were stated once for a whole list of compounds, not compound by compound.

Experiment: Dynamic vapor sorption analysis of hygroscopicity
Type: physicochemical
Details: relative humidity (RH) from 5% to 95%
Excerpt: Dynamic vapor sorption analysis was used for measurement of the hygroscopicity of crystalline form A, C, D, and E under the scope of relative humidity (RH) from 5% to 95%.

Structure (SMILES) | hygroscopicity
C/C(=C(\CCO[P+]([O-])(O)O)SC(=O)c1ccccc1)N(C=O)Cc1cnc(C)nc1N [crystalline form D, S-benzoylthiamine O-monophosphate] | under 2.0%
C/C(=C(\CCO[P+]([O-])(O)O)SC(=O)c1ccccc1)N(C=O)Cc1cnc(C)nc1N [crystalline form A, S-benzoylthiamine O-monophosphate] | under 2.0%
C/C(=C(\CCO[P+]([O-])(O)O)SC(=O)c1ccccc1)N(C=O)Cc1cnc(C)nc1N [crystalline form E, S-benzoylthiamine O-monophosphate] | under 2.0%
